Assay results reported in publication PMC6925144, “A prospective compound screening contest identified broader inhibitors for Sirtuin 1” (Scientific Reports, 2019).
Whole data set: some 3,200 compounds, median “TSA(with NAD+) / Primary screening (TSA) / delta Tm (K)” near -0.04, cut for the highest 2% near 0.37. The list shows a part of the results.

Amino acid sequences for entries named in this document (tags omitted). Residues count along the entry.
UniProt Q96EB6, 2-747 limits assumed: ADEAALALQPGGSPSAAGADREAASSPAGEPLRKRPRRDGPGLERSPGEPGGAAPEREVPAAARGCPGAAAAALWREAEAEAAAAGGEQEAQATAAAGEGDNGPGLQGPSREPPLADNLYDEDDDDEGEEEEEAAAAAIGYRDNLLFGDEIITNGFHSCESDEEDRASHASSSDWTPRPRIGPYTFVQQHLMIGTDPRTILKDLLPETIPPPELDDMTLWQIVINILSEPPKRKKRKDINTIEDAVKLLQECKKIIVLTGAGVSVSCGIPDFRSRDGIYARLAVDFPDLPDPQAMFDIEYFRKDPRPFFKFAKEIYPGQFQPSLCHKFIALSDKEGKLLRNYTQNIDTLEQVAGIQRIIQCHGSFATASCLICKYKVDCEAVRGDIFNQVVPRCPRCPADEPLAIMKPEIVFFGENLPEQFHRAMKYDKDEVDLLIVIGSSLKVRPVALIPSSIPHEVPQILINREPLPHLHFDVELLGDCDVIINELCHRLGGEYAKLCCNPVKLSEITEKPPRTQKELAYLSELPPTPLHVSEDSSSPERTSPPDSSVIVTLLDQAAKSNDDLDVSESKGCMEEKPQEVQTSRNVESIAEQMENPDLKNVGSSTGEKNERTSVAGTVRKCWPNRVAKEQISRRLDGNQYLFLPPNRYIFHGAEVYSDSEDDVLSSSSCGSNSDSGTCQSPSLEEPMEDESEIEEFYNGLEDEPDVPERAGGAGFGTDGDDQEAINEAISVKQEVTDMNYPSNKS

biological target: NAD-dependent deacetylase Sirtuin 1 (human, UniProt Q96EB6); experiment: primary screen, delta tm; set-up: single well (n = 1, as 'the same TSA'); conditions: 10 µM

Compound | TSA(with NAD+) / Primary screening (TSA) / delta Tm (K)
Cc1nn2cccnc2c1C(=O)NCC1CC12CCc1ccccc12 (stereo not shown) | -0.18
CN(C)S(=O)(=O)c1ccc(C(=O)C2=C(O)C(=O)N(CCN3CCOCC3)C2c2ccco2)cc1 (stereo not shown) | -0.23
O=C(c1ccc2[nH]c3c(c2c1)CCCC3)N1CC1 | -0.18
CCN(C(=O)CSc1nnc(SCc2ccc(Cl)cc2)s1)C1CCS(=O)(=O)C1 (stereo not shown) | -0.01
O=C(O)CCCNc1ncnc2sc3c(c12)CCCC3 | -0.22
COc1c(C=C2C(=O)NC(=S)NC2=O)ccc2ccccc12 | -0.33
Cc1cc(NN)n2nc(C(F)(F)F)c(-c3ccc(Cl)cc3)c2n1 | 0.37
O=C(CCc1ccc2c(c1)OCO2)N1CCc2[nH]c3ccccc3c2C1 | -0.01
CCN(C(=O)CSc1nnc(-c2ccc3c(c2)OCO3)o1)C1CCS(=O)(=O)C1 (stereo not shown) | 0.16
C=CCCCN | -0.13
COCC(O)CN (stereo not shown) | -0.12
CC(=O)Nc1cc2ccccc2cc1C(=O)NC1CCOc2ccccc21 (stereo not shown) | -0.08
Cc1ccc(-c2nn(-c3ccccc3)cc2C(=O)NCc2nnc3ccccn23)cc1 | -0.13
OC1CCN(c2ncnc3c2oc2ccccc23)CC1 | -0.28
Cn1ccnc1C(NC(=O)Cc1ccc(F)cc1)c1ccccc1F (stereo not shown) | -0.05
C[C@@H]1C[C@H]1N | -0.03
O=C(CC12CC3CC(CC(O)(C3)C1)C2)Nc1cccc2c1CCCC2 | -0.01
CC1CN(S(=O)(=O)CCNC(=O)Nc2cc3c(cc2Cl)OCCO3)CC(C)O1 (stereo not shown) | -0.12
COc1ccc(N(C)S(=O)(=O)c2cccc(C(=O)OCc3cc(=O)oc4cc(C)ccc34)c2)cc1 | -0.01
CNC(=O)CSc1nnc(-c2c[nH]c3ccccc23)n1Cc1ccco1 | 0.05
O=C(NCc1ccc(S(=O)(=O)N2CCOCC2)s1)C1=COCCO1 | 0.07
Cc1nc(C(=O)Nc2ccc(-c3cn4ccsc4n3)cc2)cs1 | -0.11
O=C1NC(=O)c2ccccc2/C1=C\NCCCN1CCc2ccccc21 | -0.19
CCNC(=O)c1ccc2[nH]c(C)c(C)c2c1 | 0.06

Compound | TSA(with NAD+) / Primary screening (TSA) / delta Tm (K)
Cc1ccc(F)cc1C(=O)OCc1nc(C(C)C)ns1 | -0.21
Cc1ccc(N(C)S(=O)(=O)c2cccc(C(=O)Nc3cccc(C(=O)NC4CC4)c3)c2)cc1 | -0.03
COC(=O)CCNc1ncnc2ccsc12 | -0.19
O=C(Nc1ccc(N2CCN(Cc3ccccc3)CC2)cc1)c1cccc2cccnc12 | 0.01
Cc1ccc(-c2nc(COC(=O)CN3C(=O)c4ccccc4C3=O)cs2)cc1 | -0.13
O=C(NC(c1ccccc1)c1ccccc1)c1ccc2ccccc2c1 | -0.12
CC(=O)NCCCN | 0.06
CCOC(=O)c1ccc(S(=O)(=O)N2CCC(C(=O)OCC(=O)NCC34CC5CC(CC(C5)C3)C4)CC2)cc1 | 0.01
NCCCC[C@H](N)C(=O)O | -0.28
CC1CCCCN1c1ncnc2c1cnn2-c1ccccc1 (stereo not shown) | 0.19
O=C(CN1CCCC1=O)Nc1cc(Br)c(F)cc1F | -0.13
CC(OC(=O)c1cc2c(s1)CCCC2)C(=O)Nc1ccc(C(N)=O)cc1 (stereo not shown) | 0.01
Cc1cccc(NC(=O)COc2ccc3c4c(c(=O)oc3c2)CCC4)c1 | 0.06
COc1ccc(CNC(=O)C(C)OC(=O)c2cc(S(=O)(=O)NC34CC5CC(CC(C5)C3)C4)ccc2Cl)cc1 (stereo not shown) | -0.11
Cc1onc(-c2ccc(F)cc2)c1C(=O)N1CCN(S(=O)(=O)c2ccc3c(c2)CCC3)CC1 | -0.09
CC(CN)S(C)=O (stereo not shown) | -0.28
COc1ccc(NC(C)c2ccc(S(C)=O)cc2)cn1 (stereo not shown) | -0.11
O=C(/C=C/c1ccc(F)cc1)NCCCn1ccc2ccccc21 | 0.02
Cc1ccc(NC(=O)CCC2CCCO2)cc1I (stereo not shown) | -0.15
O=C(CCCc1nc2ccccc2c(=O)[nH]1)N1CC2CC3CC(C2)CC1C3 | -0.01
CCCCc1ccc(/N=C/c2ccc3ncccc3c2)cc1 | 0.06
COc1ccc(C2C(C(=O)c3ccco3)=C(O)C(=O)N2CCCN2CCOCC2)cc1 (stereo not shown) | -0.04
O=c1cc(-c2ccccc2)c2ccc(OCCOc3ccc(Br)cc3)cc2o1 | -0.01
Cc1noc2ncc(NC(=O)c3c[nH]nc3-c3ccccc3F)cc12 | -0.08

Compound | TSA(with NAD+) / Primary screening (TSA) / delta Tm (K)
CN1C(=O)N(CC(=O)O)C(=O)C12CCCCC2 | -0.06
CN(C)/C=N/c1ncnc2c1cnn2-c1ccccc1 | -0.03
Cc1ccc(C(=O)N2CCC(C(=O)Nc3ccccc3)CC2)cc1S(=O)(=O)NCc1ccccc1 | 0.03
NC(=O)c1cc(NC(=O)CN2CCN(c3ccccc3O)CC2)cc(C(N)=O)c1 | -0.09
N#CC(C(=O)c1ccc(NS(=O)(=O)c2ccccc2)cc1)c1nc(-c2ccccn2)cs1 (stereo not shown) | 0.47
O=C([O-])COCCO | -0.12
NC(=O)C1CCN(C(=O)/C=C/c2ccc(-c3ccccc3F)o2)C1 (stereo not shown) | -0.18
COc1ccc(C2C(C(=O)c3ccc(OC)c(OC)c3)=C(O)C(=O)N2CCCN2CCOCC2)cc1 (stereo not shown) | -0.01
CCOC(=O)CN(Cc1ccccc1)Cc1cc(=O)c(OC)co1 | 0.01
CC(C)(N)CCN | -0.03
CC(=O)c1cc(Cl)ccc1OCc1cc(=O)n2ccccc2n1 | -0.01
CN(C(=O)CSc1ncnc2c1cnn2C)C1CCCc2ccccc21 (stereo not shown) | -0.23
Cc1ccc(CCNC(=O)CNC(=O)c2cc3ccccc3[nH]2)cn1 | 0.11
O=c1c2ccccc2n2c(SCc3nnc(-c4cccs4)o3)nnc2n1-c1ccccc1 | -0.11
Cc1ccc(C23CC4CC(CC(C(=O)OCC(=O)Nc5ccc6c(c5)OCO6)(C4)C2)C3)cc1 | 0.27
CN(Cc1nc2ccccc2s1)C(=O)CSc1nnc(-c2cccnc2)n1C1CC1 | -0.04
O=C(O)CCCCCN1C(=O)/C(=C/c2cccc3ccccc23)SC1=S | 0.01
CC(C)(C)OC(=O)N1CCCCC1CNc1cnc2ccccc2n1 (stereo not shown) | -0.13
NC(=O)C1CCN(Cc2nc3cc(Cl)ccc3c(=O)[nH]2)CC1 | 0.05
O=C(CCc1nc2ccccc2c(=O)[nH]1)Nc1ccc(N2CCN(Cc3ccccc3)CC2)cc1 | 0.03
CCCCn1ccnc1C(=O)c1cccc(S(=O)(=O)N(C)c2ccccc2)c1 | -0.08
Cc1ccc2[nH]c(C(=O)O)c(C)c2c1 | -0.04
Cc1ccc(C(=O)NNC(=O)c2cccc(S(=O)(=O)N(C)c3ccc(C)cc3)c2)cc1 | -0.03
O=C(NCc1nnc2n1-c1ccccc1CC2)c1ccc2ccccc2c1 | 0.05

A second format for three compounds above:
Compound	TSA(with NAD+) / Primary screening (TSA) / delta Tm (K)
CCN(C(=O)CSc1nnc(-c2ccc3c(c2)OCO3)o1)C1CCS(=O)(=O)C1 (stereo not shown)	0.16
CN1C(=O)N(CC(=O)O)C(=O)C12CCCCC2	-0.06
Cc1ccc(C23CC4CC(CC(C(=O)OCC(=O)Nc5ccc6c(c5)OCO6)(C4)C2)C3)cc1	0.27

(further entries)

Compound | TSA(with NAD+) / Primary screening (TSA) / delta Tm (K)
Cc1ccc(S(=O)(=O)Nc2ccc(F)cc2)cc1C(=O)NCc1cccc(NC(=O)C2CC2)c1 | -0.06
Cc1c(C(=O)NCc2nnc3n2CCC3)oc2ccc(Cl)cc12 | 0.06
O=C(/C=C/c1ccccc1)C1=C(O)C(=O)N(CCCN2CCOCC2)C1c1ccc(Cl)cc1 (stereo not shown) | -0.05
Cc1ccc(COC(=O)c2cccc3c2C(=O)c2ccccc2C3=O)cc1 | 0.11
CCOC(=O)C1=C(C)NC(C)=C(C(=O)OCC)C1c1nc2ccccc2[nH]1 | -0.09
Cc1nc(N2CCN(CC3CCCO3)CC2)c2c(-c3ccccc3)csc2n1 (stereo not shown) | -0.01
Oc1cnc2ccccc2c1 | -0.05
COc1cccc(C2C(C(=O)/C=C/c3ccco3)=C(O)C(=O)N2CCCN2CCOCC2)c1 (stereo not shown) | -0.12
CC(=O)NC1CCCN(c2nc3ccccc3cc2CO)C1 (stereo not shown) | -0.01
CCS(=O)(=O)Nc1ccc(S(=O)(=O)Nc2nccs2)c(OC)c1 | -0.05
NC1=C(c2nc3ccccc3[nH]2)C(=O)CN1c1ccc(CC(=O)O)cc1 | -0.03
CC(=O)c1ccc(F)cc1NC(=O)C1CCCOC1 (stereo not shown) | -0.22
COc1cc(Br)c(/C=C2/Oc3cc(O)ccc3C2=O)cc1O | 0.03
Cc1ccc(-c2sc(-c3ccccc3)nc2CC(=O)N/N=c2/sc3ccccc3n2C)cc1 | 0.25
NC(=O)C1CCN(CC(=O)Nc2cc(C3CCCC3)nn2-c2ccccc2)CC1 | -0.28
CC1=NN(c2ccccc2)C(=O)/C1=C\c1cn(-c2ccccc2)nc1-c1cc2ccccc2oc1=O | -0.28
Cc1sc2nc(CSc3ccccc3)nc(N3CCC(C(N)=O)CC3)c2c1C | 0.49
O=C(Nc1cc(Br)c(F)cc1Cl)C1CCCO1 (stereo not shown) | -0.04
CC(NS(=O)(=O)c1ccc(C(N)=O)cc1)c1cc(F)c(Cl)cc1Cl (stereo not shown) | -0.04
COc1ccc(OC)c(/C=C2/Oc3cc(O)ccc3C2=O)c1 | -0.06
O=C(CN1CCN(C(=O)c2ccccc2Oc2ccccc2)CC1)Nc1ccccc1Cl | -0.01
Cc1cc(S(=O)(=O)NCc2ccc(C(N)=O)cc2)sc1Cl | 0.06
